Results are given in words; binding and its absence hold for the method and conditions named. In cells and extracts the contact can be indirect. Some results given as binding are weak or reduced against the parent protein; the word gives no strength.
T1: wild type TMEM43 (TMEM43 p.358S) (human) (UniProt Q9BTV4)
T1 sequence: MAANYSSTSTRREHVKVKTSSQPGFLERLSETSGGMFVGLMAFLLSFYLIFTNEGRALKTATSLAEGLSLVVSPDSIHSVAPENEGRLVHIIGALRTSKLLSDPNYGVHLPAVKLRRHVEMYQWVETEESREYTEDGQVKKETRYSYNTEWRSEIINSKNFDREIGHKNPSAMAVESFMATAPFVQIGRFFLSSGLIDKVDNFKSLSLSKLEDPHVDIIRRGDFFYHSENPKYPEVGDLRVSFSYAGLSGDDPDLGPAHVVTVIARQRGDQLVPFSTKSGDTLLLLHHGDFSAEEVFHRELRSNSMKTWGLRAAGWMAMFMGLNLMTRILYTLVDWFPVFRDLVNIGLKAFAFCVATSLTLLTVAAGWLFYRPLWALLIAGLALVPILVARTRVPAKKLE

B1: wild type TMEM43 (TMEM43 p.358S) (protein, UniProt Q9BTV4 1-400)
chain: MAANYSSTSTRREHVKVKTSSQPGFLERLSETSGGMFVGLMAFLLSFYLIFTNEGRALKTATSLAEGLSLVVSPDSIHSVAPENEGRLVHIIGALRTSKLLSDPNYGVHLPAVKLRRHVEMYQWVETEESREYTEDGQVKKETRYSYNTEWRSEIINSKNFDREIGHKNPSAMAVESFMATAPFVQIGRFFLSSGLIDKVDNFKSLSLSKLEDPHVDIIRRGDFFYHSENPKYPEVGDLRVSFSYAGLSGDDPDLGPAHVVTVIARQRGDQLVPFSTKSGDTLLLLHHGDFSAEEVFHRELRSNSMKTWGLRAAGWMAMFMGLNLMTRILYTLVDWFPVFRDLVNIGLKAFAFCVATSLTLLTVAAGWLFYRPLWALLIAGLALVPILVARTRVPAKKLE
B2: TMEM43 p.S358L (protein, UniProt Q9BTV4 1-400)
chain: MAANYSSTSTRREHVKVKTSSQPGFLERLSETSGGMFVGLMAFLLSFYLIFTNEGRALKTATSLAEGLSLVVSPDSIHSVAPENEGRLVHIIGALRTSKLLSDPNYGVHLPAVKLRRHVEMYQWVETEESREYTEDGQVKKETRYSYNTEWRSEIINSKNFDREIGHKNPSAMAVESFMATAPFVQIGRFFLSSGLIDKVDNFKSLSLSKLEDPHVDIIRRGDFFYHSENPKYPEVGDLRVSFSYAGLSGDDPDLGPAHVVTVIARQRGDQLVPFSTKSGDTLLLLHHGDFSAEEVFHRELRSNSMKTWGLRAAGWMAMFMGLNLMTRILYTLVDWFPVFRDLVNIGLKAFAFCVATLLTLLTVAAGWLFYRPLWALLIAGLALVPILVARTRVPAKKLE

Target: T1, wild type TMEM43 (TMEM43 p.358S) (human)
Assay: co-IP

Row | Binder | binding
1 | B1 | binds
2 | B2 | binds
